Laboratory results published in PMC2951368.
No constants are given. Whether binding was seen depends on the method and setting. Binding seen in cells or lysates may run through a third protein. Some entries that bind do so weakly or less than the wild type. Where a sequence is shown, tags or fusion partners need not be part of it.

How the values were obtained:
[1] = target: T1, FLAG-SR-BI (full-length human SR-BI with N-terminal FLAG tag) (human) (UniProt Q8WTV0); assay: co-IP; Huh-7 cells co-transfected; immunoprecipitation of FLAG-tagged protein with anti-FLAG; blot for co-immunoprecipitated Myc-tagged protein
T1 sequence: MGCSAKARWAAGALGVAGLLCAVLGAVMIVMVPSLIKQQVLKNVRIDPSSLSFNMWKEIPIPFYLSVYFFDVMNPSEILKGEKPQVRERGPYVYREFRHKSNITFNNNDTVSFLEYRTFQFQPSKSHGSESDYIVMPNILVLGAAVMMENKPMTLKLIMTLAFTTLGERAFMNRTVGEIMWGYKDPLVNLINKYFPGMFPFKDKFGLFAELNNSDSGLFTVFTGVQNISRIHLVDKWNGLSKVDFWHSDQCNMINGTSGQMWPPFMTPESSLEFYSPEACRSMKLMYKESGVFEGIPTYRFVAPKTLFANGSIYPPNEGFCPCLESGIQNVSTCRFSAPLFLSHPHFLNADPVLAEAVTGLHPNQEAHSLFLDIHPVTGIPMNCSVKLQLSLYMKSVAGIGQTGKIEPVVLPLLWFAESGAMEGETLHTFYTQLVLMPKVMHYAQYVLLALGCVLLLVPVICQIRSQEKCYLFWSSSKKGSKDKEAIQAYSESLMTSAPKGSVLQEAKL

[2] = target: T1, FLAG-SR-BI (full-length human SR-BI with N-terminal FLAG tag) (human); assay: co-IP; 293T cells co-transfected; lysis in NP-40 buffer (1% NP-40, 150 mM NaCl, 50 mM Tris pH 8.0); immunoprecipitation of FLAG-tagged protein with anti-FLAG mAb and protein A/G agarose at 4°C; blot with anti-Myc or anti-GFP
[3] = target: T2, FLAG-SR-BIΔ509 (SR-BI lacking the final carboxy-terminal residue, N-terminal FLAG tag) (human) (UniProt Q8WTV0); assay: as above
T2 sequence: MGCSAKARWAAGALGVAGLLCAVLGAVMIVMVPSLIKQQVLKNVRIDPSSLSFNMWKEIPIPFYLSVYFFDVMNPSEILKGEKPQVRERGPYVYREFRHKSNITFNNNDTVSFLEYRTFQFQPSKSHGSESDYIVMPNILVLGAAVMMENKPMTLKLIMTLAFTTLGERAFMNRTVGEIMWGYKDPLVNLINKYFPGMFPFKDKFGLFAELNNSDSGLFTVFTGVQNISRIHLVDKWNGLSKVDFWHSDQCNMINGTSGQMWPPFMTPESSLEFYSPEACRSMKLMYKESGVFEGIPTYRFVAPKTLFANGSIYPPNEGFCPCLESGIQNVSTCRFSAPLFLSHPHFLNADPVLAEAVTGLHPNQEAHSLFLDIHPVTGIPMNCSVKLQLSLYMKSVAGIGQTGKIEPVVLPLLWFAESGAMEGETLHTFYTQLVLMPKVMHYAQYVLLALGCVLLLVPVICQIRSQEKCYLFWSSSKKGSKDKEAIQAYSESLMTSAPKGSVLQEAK

Measured: binding

B1: mycSR-BIΔ509 (SR-BI lacking the final carboxy-terminal residue, N-terminal Myc tag) (receptor, UniProt Q8WTV0-2 1-508)
chain: MGCSAKARWAAGALGVAGLLCAVLGAVMIVMVPSLIKQQVLKNVRIDPSSLSFNMWKEIPIPFYLSVYFFDVMNPSEILKGEKPQVRERGPYVYREFRHKSNITFNNNDTVSFLEYRTFQFQPSKSHGSESDYIVMPNILVLGAAVMMENKPMTLKLIMTLAFTTLGERAFMNRTVGEIMWGYKDPLVNLINKYFPGMFPFKDKFGLFAELNNSDSGLFTVFTGVQNISRIHLVDKWNGLSKVDFWHSDQCNMINGTSGQMWPPFMTPESSLEFYSPEACRSMKLMYKESGVFEGIPTYRFVAPKTLFANGSIYPPNEGFCPCLESGIQNVSTCRFSAPLFLSHPHFLNADPVLAEAVTGLHPNQEAHSLFLDIHPVTGIPMNCSVKLQLSLYMKSVAGIGQTGKIEPVVLPLLWFAESGAMEGETLHTFYTQLVLMPKVMHYAQYVLLALGCVLLLVPVICQIRSQEKCYLFWSSSKKGSKDKEAIQAYSESLMTSAPKGSVLQEAK
binds: all assays above
